Reference: PMC3899338
Results are given in words; binding and its absence hold for the method and conditions named. Binding seen in cells or lysates may run through a third protein. Here binding means that the protein was enriched with, or labelled near, the bait; the list need not be complete.

Amino acid sequences for entries named in this document (tags omitted). Residues count along the entry.
UniProt P08238: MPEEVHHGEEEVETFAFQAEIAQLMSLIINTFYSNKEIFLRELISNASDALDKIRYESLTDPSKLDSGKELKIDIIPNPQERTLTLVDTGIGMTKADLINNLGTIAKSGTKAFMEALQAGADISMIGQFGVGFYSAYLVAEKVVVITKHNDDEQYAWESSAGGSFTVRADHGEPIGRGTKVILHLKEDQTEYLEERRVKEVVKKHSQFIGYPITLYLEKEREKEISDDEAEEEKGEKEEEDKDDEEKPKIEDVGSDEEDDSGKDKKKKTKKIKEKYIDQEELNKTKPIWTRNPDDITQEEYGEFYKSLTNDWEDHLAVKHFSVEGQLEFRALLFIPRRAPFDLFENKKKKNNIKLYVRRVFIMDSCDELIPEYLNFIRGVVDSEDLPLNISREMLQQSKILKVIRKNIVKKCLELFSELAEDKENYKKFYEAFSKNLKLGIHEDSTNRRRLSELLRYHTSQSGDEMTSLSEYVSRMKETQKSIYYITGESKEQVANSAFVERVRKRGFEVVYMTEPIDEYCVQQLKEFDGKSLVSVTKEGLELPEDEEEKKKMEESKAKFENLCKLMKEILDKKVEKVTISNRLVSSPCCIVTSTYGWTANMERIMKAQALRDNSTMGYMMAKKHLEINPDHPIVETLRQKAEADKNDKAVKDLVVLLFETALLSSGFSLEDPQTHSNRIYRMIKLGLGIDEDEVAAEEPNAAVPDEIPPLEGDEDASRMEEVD
UniProt P02751, residues 32-2477: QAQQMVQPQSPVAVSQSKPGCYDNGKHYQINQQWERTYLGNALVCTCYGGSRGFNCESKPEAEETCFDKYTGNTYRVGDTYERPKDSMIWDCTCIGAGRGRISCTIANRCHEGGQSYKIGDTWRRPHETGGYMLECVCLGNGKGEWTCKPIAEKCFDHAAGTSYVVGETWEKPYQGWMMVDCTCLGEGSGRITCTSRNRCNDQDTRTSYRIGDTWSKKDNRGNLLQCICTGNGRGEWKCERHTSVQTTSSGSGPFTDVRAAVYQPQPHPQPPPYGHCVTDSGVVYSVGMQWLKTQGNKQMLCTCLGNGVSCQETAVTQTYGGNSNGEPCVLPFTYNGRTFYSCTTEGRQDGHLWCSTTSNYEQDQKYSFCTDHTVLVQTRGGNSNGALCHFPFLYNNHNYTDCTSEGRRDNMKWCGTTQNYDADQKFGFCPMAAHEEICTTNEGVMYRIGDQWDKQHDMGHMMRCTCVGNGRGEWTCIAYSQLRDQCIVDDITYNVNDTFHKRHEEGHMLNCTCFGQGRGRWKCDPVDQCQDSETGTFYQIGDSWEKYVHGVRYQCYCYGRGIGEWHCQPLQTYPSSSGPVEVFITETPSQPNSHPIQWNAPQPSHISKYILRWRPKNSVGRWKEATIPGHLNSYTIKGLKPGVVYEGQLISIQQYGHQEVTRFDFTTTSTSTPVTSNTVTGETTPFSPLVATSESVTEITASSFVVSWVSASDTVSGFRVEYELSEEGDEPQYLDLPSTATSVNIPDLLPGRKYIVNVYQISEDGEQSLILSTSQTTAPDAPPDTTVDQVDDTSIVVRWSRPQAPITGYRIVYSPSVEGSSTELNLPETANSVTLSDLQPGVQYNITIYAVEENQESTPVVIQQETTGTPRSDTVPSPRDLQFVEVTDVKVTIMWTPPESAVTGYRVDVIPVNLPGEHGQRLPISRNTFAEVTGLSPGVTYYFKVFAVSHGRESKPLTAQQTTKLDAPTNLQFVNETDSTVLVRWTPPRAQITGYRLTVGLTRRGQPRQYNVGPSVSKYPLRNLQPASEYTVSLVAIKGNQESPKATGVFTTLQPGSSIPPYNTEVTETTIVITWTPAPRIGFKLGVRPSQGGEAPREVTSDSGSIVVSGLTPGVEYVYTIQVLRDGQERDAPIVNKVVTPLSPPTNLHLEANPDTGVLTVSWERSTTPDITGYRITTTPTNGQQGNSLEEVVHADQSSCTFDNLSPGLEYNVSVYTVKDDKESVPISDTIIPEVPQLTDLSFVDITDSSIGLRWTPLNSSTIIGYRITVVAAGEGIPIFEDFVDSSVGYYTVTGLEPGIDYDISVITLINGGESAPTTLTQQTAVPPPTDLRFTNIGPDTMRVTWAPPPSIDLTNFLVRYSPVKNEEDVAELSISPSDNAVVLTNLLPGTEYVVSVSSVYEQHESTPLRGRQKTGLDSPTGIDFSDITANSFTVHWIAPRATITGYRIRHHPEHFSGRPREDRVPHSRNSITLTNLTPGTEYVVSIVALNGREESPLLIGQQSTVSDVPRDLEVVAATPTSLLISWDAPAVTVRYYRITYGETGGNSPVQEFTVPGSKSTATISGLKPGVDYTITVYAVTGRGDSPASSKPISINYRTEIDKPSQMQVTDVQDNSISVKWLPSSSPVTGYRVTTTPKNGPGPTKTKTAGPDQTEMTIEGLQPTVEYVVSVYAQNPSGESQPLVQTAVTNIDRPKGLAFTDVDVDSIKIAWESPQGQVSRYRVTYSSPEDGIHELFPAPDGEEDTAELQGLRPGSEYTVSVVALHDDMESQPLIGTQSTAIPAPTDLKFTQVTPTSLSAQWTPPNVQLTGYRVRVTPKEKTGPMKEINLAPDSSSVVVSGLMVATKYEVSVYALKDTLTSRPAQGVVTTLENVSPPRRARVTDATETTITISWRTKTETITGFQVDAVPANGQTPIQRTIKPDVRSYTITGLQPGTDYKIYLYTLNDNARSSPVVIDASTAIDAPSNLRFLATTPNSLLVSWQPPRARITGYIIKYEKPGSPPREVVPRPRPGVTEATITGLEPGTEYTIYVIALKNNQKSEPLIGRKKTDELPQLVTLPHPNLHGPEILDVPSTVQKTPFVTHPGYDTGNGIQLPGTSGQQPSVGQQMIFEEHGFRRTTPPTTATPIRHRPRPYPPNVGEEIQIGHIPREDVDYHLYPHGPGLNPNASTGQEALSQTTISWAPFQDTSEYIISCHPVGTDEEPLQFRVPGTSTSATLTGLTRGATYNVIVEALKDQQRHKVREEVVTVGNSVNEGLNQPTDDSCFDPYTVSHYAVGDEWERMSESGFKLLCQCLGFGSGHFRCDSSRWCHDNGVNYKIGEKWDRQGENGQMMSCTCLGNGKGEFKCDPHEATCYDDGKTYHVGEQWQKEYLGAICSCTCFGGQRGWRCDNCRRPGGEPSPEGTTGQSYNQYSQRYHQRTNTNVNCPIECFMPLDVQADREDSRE

Biological target: Hsp90β, endogenous in MDA-MB-231 cells (human (endogenous in MDA-MB-231)) (UniProt P08238)
Assay: cross-linking + affinity purification with mass spectrometry; surface proteins of MDA-MB-231 cells cross-linked with cell impermeable, thiol-cleavable DTSSP (2 mM, 1 hour, 4°C); lysates immunoprecipitated with mouse anti human Hsp90α/β antibody on Dynabeads; non-reducing SDS-PAGE, bands excised, MS/MS

## human FN1 (fibronectin), endogenous in MDA-MB-231 cells (from UniProt P02751 32-2477)
  binding: binds
